# Measured values: patent US20060063149A1
# No constants are given. Whether binding was seen depends on the method and setting. For some of these results: In cells and extracts the contact can be indirect. Some entries that bind do so weakly or less than the wild type. For some of these results: Sequences can lack the tags named with a protein.
# B1: Human Lysozyme-Horseradish Peroxidase conjugate (enzyme)
# chain: KVFERCELARTLKRLGMDGYRGISLANWMCLAKWESGYNTRATNYNAGDRSTDYGIFQINSRYWCNDGKTPGAVNACHLSCSALLQDNIADAVACAKRVVRDPQGIRAWVAWRNRCQNRDVRQYVQGCGV
# modifications: chemically conjugated to activated horseradish peroxidase (POD)
# B2: Tp17-HIS (protein)
# chain: VSCTTVCPHAGKAKAEKVECALKGGIFRGTLPAADCPGIDTTVTFNADGTAQKVELALEKKSAPSPLTYRGTWMVREDGIVELSLVSSEQSKAPHEKELYELIDSNSVRYMGAPGAGKPSKEMAPFYVLKKTKK
# Key:
# sAPPα (human) [1] = target: sAPPα (human) (UniProt P05067); test: dot blot, 10 µg spotted, POD-HuLYS diluted 1/1000
# [2] = target: T1, Escherichia coli Ivy protein (Escherichia coli) (UniProt P0AD59); test: HuLYS-POD protein overlay assay on blotted cell extract
# T1 sequence: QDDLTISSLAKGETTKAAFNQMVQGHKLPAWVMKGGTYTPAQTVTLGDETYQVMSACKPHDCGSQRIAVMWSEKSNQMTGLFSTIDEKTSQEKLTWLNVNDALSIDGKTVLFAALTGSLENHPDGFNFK
# sAPPα (human) [3] = target: sAPPα (human) (UniProt P05067); test: dot blot, 10 µg spotted, POD-labeled human lysozyme diluted 1/1000
# [4] = target: chicken egg white lysozyme (chicken) (UniProt P00698); test: co-purification on nickel affinity chromatography; 14 kDa protein identified as chicken lysozyme by N-terminal sequencing
binder,measurement,setting,value
B1,binding,sAPPα (human) [1],binds
same,binding,[2],binds
same,binding,sAPPα (human) [3],binds
B2,binding,[4],binds
